# Data taken from the supplement of paper PMC12889115.
# The other results are listed elsewhere or left out. Values are raw readings; no control value is given beside them.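 First-pass screen: polymyxin B was added at a level that permeabilizes the Salmonella outer membrane while sparing the inner membrane. DMSO wells, with and without polymyxin B, defined maximum growth. Because plates differed from one another, each plate's data were ranked separately and the compounds with the lowest OD600 were carried forward as hits.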
# System: Salmonella enterica serovar Typhimurium SL1344
# Experiment: bacterial growth OD600 after 18 h with compound and polymyxin B; higher = more bacterial growth (less inhibition)
# Settings: 50 µM, Mueller-Hinton broth
Compound,bacterial growth OD600 (polymyxin B 1 µg/mL),bacterial growth OD600 (polymyxin B 0.75 µg/mL)
Clc1cccc(-c2noc(CN3CCCC(c4ccccc4)C3)n2)c1 (stereo not given),0.333,
O=C(NCCc1cnn(-c2ccccc2)c1)C1CCC(=O)N(CCc2ccccn2)C1 (stereo not given),1.22,
O=C(CCn1cccn1)N1CCCC(CCc2ccccc2F)C1 (stereo not given),,0.465
CC(C)CCCC1CN(C(=O)CCN2CCCC2=O)CCO1 (stereo not given),0.899,
COC(=O)CCCNC(=O)c1cc(OC)ccc1OC1CCN(C(=O)C2CC2)CC1,1.16,
COc1ccc(-c2cnnc(NCCSc3nccn3C)n2)cc1,,0.782
O=C(c1cccs1)N1CCC2(CCCN(Cc3cccnc3)C2=O)C1 (stereo not given),0.891,
COc1ccc(CCN2CCCC(CN(C)Cc3csc(C(C)=O)c3)C2)cc1 (stereo not given),,0.842
O=C(Cc1cc(F)cc(F)c1)NCCN1Cc2ccccc2OC(c2ccccc2)C1 (stereo not given),,0.048
O=C(NCC1CCCN(C(=O)c2ccc3[nH]ccc3c2)C1)c1ccccc1Cl (stereo not given),0.918,
CCc1cc(C(=O)N(CCN2CCCCC2)CC2CCCN(C3CCCC3)C2)n(C)n1 (stereo not given),0.848,
Cc1nonc1CC(=O)N1CCC(CCC(=O)N(C)Cc2ccccc2)CC1,0.964,
COc1cccc(CC2(CO)CCCN(Cc3c[nH]nc3C3CCCCC3)C2)c1 (stereo not given),0.782,
Cc1ccc(OCCN(C)C(=O)CCC2(Cc3ccc(Cl)cc3)CCC(=O)N2)cc1 (stereo not given),,0.812
Cc1nc(N2CCC(NCc3cccc4[nH]ccc34)CC2)nc2ccc(F)cc12,,0.821
Cc1ccc(F)cc1CNC(=O)c1cc(NC(=O)C2CCCO2)c2c(c1)nc(C1CCC1)n2C (stereo not given),,0.798
Cc1ncoc1C(=O)N1CCCC(CCc2ccccc2)C1 (stereo not given),,0.783
CN(C(=O)c1n[nH]c(=O)c2ccccc12)C1CCCN(C2Cc3ccccc3C2)C1 (stereo not given),1.23,
O=C1CCC(CCC(=O)N2CCCC2c2nc3ccccc3s2)(Cc2cccs2)N1 (stereo not given),,0.812
CCN(CC)C(=O)C1CCCN(Cc2nc(-c3cccc(Cl)c3)no2)C1 (stereo not given),1.01,

# Arranged by formula weight (rising): part of the list above.
Compound,bacterial growth OD600 (polymyxin B 1 µg/mL),bacterial growth OD600 (polymyxin B 0.75 µg/mL)
CCN(CC)C(=O)C1CCCN(Cc2nc(-c3cccc(Cl)c3)no2)C1 (stereo not given),1.01,
Cc1nonc1CC(=O)N1CCC(CCC(=O)N(C)Cc2ccccc2)CC1,0.964,
COc1cccc(CC2(CO)CCCN(Cc3c[nH]nc3C3CCCCC3)C2)c1 (stereo not given),0.782,
